# Assay results as given in the supplement of paper PMC8728848.
# This is one part of the list.
# B1: CM2 (Cordyceps militaris) (protein)
# chain: MEIAEQNVGKSCAIVNLIPPKEGSNIWTAKQVTIARNLPPNRGTGRHQIDWSFGPVKVTGYVDTTNWEIGVTVSIMGIDLGTVYGNLRDGVVLNVDLFLAKGQVRFYLKNGNEVWVHLSVEIRFDGKFEGDYKIITV
# Tests used:
# Test in all cases: glycan array binding signal (z-score within array); higher = stronger binding
# Conditions in all cases: glycan notation: IUPAC condensed, linker removed
# [1] = molecular target: Gal(b1-4)GlcNAc(b1-3)Gal(b1-4)GlcNAc(b1-6)[Gal(b1-3)]GalNAc
# How it was run: (§1)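 Negative Z-scores can be read as non-binding. The Z-score is calculated within each array and then averaged across arrays of one protein sequence at different concentrations or buffers and across linkers. Arrays, 3228 in all, were curated from the Consortium for Functional Glycomics database and kept only where the protein sequence was available.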
# [2] = molecular target: Gal(b1-4)GlcNAc(b1-3)Gal(b1-4)[Fuc(a1-3)]GlcNAc(b1-3)Gal(b1-4)[Fuc(a1-3)]GlcNAc
# How it was run: as §1
# [3] = molecular target: Gal(b1-4)GlcNAc(b1-3)GalNAc
# How it was run: as §1
# [4] = molecular target: Gal(b1-4)GlcNAc(b1-3)[Fuc(a1-3)GlcNAc(b1-6)]Gal(b1-4)Glc
# How it was run: as §1
# [5] = molecular target: Gal(b1-4)GlcNAc(b1-3)[Gal(b1-4)GlcNAc(b1-6)]Gal(b1-4)GlcNAc
# How it was run: as §1
# [6] = molecular target: Gal(b1-4)GlcNAc(b1-3)[GlcNAc(b1-6)]Gal(b1-4)GlcNAc
# How it was run: as §1
# [7] = molecular target: Gal(b1-4)GlcNAc(b1-6)Gal(b1-4)GlcNAc
# How it was run: as §1
# [8] = molecular target: Gal(b1-4)GlcNAc(b1-6)GalNAc
# How it was run: as §1
# [9] = molecular target: Gal(b1-4)GlcNAc(b1-6)[Gal(b1-3)]GalNAc
# How it was run: as §1
# [10] = molecular target: Gal(b1-4)GlcNAc(b1-6)[Gal(b1-4)GlcNAc(b1-3)]GalNAc
# How it was run: as §1
# Gal(b1-4)GlcNAc6P = molecular target: Gal(b1-4)GlcNAc6P
# How it was run: as §1
# Gal(b1-6)Gal = molecular target: Gal(b1-6)Gal
# How it was run: as §1
# Gal3S(b1-3)GalNAc = molecular target: Gal3S(b1-3)GalNAc
# How it was run: as §1
# Gal3S(b1-3)GlcNAc = molecular target: Gal3S(b1-3)GlcNAc
# How it was run: as §1
# [11] = molecular target: Gal3S(b1-3)[Fuc(a1-4)]GlcNAc
# How it was run: as §1
# Gal3S(b1-4)Glc = molecular target: Gal3S(b1-4)Glc
# How it was run: as §1
# Gal3S(b1-4)Glc6S = molecular target: Gal3S(b1-4)Glc6S
# How it was run: as §1
# Gal3S(b1-4)GlcNAc = molecular target: Gal3S(b1-4)GlcNAc
# How it was run: as §1
# [12] = molecular target: Gal3S(b1-4)[Fuc(a1-3)]Glc6S
# How it was run: as §1
# [13] = molecular target: Gal3S(b1-4)[Fuc(a1-3)]GlcNAc
# How it was run: as §1
# [14] = molecular target: Gal3S(b1-4)[Fuc(a1-3)]GlcNAc6S
# How it was run: as §1
# Gal3S4S(b1-4)GlcNAc = molecular target: Gal3S4S(b1-4)GlcNAc
# How it was run: as §1
# Gal3S6S(b1-4)GlcNAc = molecular target: Gal3S6S(b1-4)GlcNAc
# How it was run: as §1
# Gal3S6S(b1-4)GlcNAc6S = molecular target: Gal3S6S(b1-4)GlcNAc6S
# How it was run: as §1
# Gal4S(b1-4)GlcNAc = molecular target: Gal4S(b1-4)GlcNAc
# How it was run: as §1
# Gal4S6S(b1-4)GlcNAc = molecular target: Gal4S6S(b1-4)GlcNAc
# How it was run: as §1
# Gal6P(b1-4)GlcNAc = molecular target: Gal6P(b1-4)GlcNAc
# How it was run: as §1
# Gal6S(b1-3)GlcNAc = molecular target: Gal6S(b1-3)GlcNAc
# How it was run: as §1
# Gal6S(b1-3)GlcNAc6S = molecular target: Gal6S(b1-3)GlcNAc6S
# How it was run: as §1
# Gal6S(b1-4)Glc = molecular target: Gal6S(b1-4)Glc
# How it was run: as §1
# Gal6S(b1-4)Glc6S = molecular target: Gal6S(b1-4)Glc6S
# How it was run: as §1
# Gal6S(b1-4)GlcNAc = molecular target: Gal6S(b1-4)GlcNAc
# How it was run: as §1
# Gal6S(b1-4)GlcNAc6S = molecular target: Gal6S(b1-4)GlcNAc6S
# How it was run: as §1
# GalNAc(a1-3)Gal = molecular target: GalNAc(a1-3)Gal
# How it was run: as §1
# GalNAc(a1-3)GalNAc = molecular target: GalNAc(a1-3)GalNAc
# How it was run: as §1
# [15] = molecular target: GalNAc(a1-3)GalNAc(b1-3)Gal(a1-4)Gal(b1-4)Glc
# How it was run: as §1
# [16] = molecular target: GalNAc(a1-3)GalNAc(b1-3)Gal(a1-4)Gal(b1-4)GlcNAc
# How it was run: as §1
# GalNAc(b1-3)Gal = molecular target: GalNAc(b1-3)Gal
# How it was run: as §1
# [17] = molecular target: GalNAc(b1-3)Gal(a1-4)Gal(b1-4)GlcNAc
# How it was run: as §1
# [18] = molecular target: GalNAc(b1-3)Gal(a1-4)Gal(b1-4)GlcNAc(b1-3)Gal(b1-4)Glc
# How it was run: as §1
# [19] = molecular target: GalNAc(b1-3)Gal(a1-6)Gal(b1-4)Glc
# How it was run: as §1
# GalNAc(b1-3)GalNAc = molecular target: GalNAc(b1-3)GalNAc
# How it was run: as §1
# GalNAc(b1-3)GlcNAc = molecular target: GalNAc(b1-3)GlcNAc
# How it was run: as §1
# GalNAc(b1-4)Gal(b1-4)Glc = molecular target: GalNAc(b1-4)Gal(b1-4)Glc
# How it was run: as §1
# GalNAc(b1-4)GlcNAc = molecular target: GalNAc(b1-4)GlcNAc
# How it was run: as §1
binder,measurement,setting,value
B1,glycan array binding signal (z-score),[1],0.495
same,glycan array binding signal (z-score),[2],-0.058
same,glycan array binding signal (z-score),[3],0.521
same,glycan array binding signal (z-score),[4],1.42
same,glycan array binding signal (z-score),[5],-0.588
same,glycan array binding signal (z-score),[6],-0.393
same,glycan array binding signal (z-score),[7],-0.344
same,glycan array binding signal (z-score),[8],-0.05
same,glycan array binding signal (z-score),[9],-0.754
same,glycan array binding signal (z-score),[10],0.018
same,glycan array binding signal (z-score),Gal(b1-4)GlcNAc6P,-0.759
same,glycan array binding signal (z-score),Gal(b1-6)Gal,-2.15
same,glycan array binding signal (z-score),Gal3S(b1-3)GalNAc,1.81
same,glycan array binding signal (z-score),Gal3S(b1-3)GlcNAc,0.015
same,glycan array binding signal (z-score),[11],-0.383
same,glycan array binding signal (z-score),Gal3S(b1-4)Glc,0.687
same,glycan array binding signal (z-score),Gal3S(b1-4)Glc6S,1.54
same,glycan array binding signal (z-score),Gal3S(b1-4)GlcNAc,-0.321
same,glycan array binding signal (z-score),[12],-0.18
same,glycan array binding signal (z-score),[13],1.66
same,glycan array binding signal (z-score),[14],0.364
same,glycan array binding signal (z-score),Gal3S4S(b1-4)GlcNAc,0.112
same,glycan array binding signal (z-score),Gal3S6S(b1-4)GlcNAc,1.4
same,glycan array binding signal (z-score),Gal3S6S(b1-4)GlcNAc6S,3.73
same,glycan array binding signal (z-score),Gal4S(b1-4)GlcNAc,1.5
same,glycan array binding signal (z-score),Gal4S6S(b1-4)GlcNAc,-0.478
same,glycan array binding signal (z-score),Gal6P(b1-4)GlcNAc,-1.5
same,glycan array binding signal (z-score),Gal6S(b1-3)GlcNAc,-0.595
same,glycan array binding signal (z-score),Gal6S(b1-3)GlcNAc6S,0.068
same,glycan array binding signal (z-score),Gal6S(b1-4)Glc,0.018
same,glycan array binding signal (z-score),Gal6S(b1-4)Glc6S,0.244
same,glycan array binding signal (z-score),Gal6S(b1-4)GlcNAc,-0.805
same,glycan array binding signal (z-score),Gal6S(b1-4)GlcNAc6S,-0.036
same,glycan array binding signal (z-score),GalNAc(a1-3)Gal,1.85
same,glycan array binding signal (z-score),GalNAc(a1-3)GalNAc,0.312
same,glycan array binding signal (z-score),[15],0.436
same,glycan array binding signal (z-score),[16],0.418
same,glycan array binding signal (z-score),GalNAc(b1-3)Gal,0.529
same,glycan array binding signal (z-score),[17],-0.165
same,glycan array binding signal (z-score),[18],0.645
same,glycan array binding signal (z-score),[19],0.739
same,glycan array binding signal (z-score),GalNAc(b1-3)GalNAc,0.397
same,glycan array binding signal (z-score),GalNAc(b1-3)GlcNAc,-0.562
same,glycan array binding signal (z-score),GalNAc(b1-4)Gal(b1-4)Glc,-0.617
same,glycan array binding signal (z-score),GalNAc(b1-4)GlcNAc,1.58

# Reformatted as tab-separated lines: entries from further up
binder	measurement	setting	value
B1	glycan array binding signal (z-score)	Gal4S6S(b1-4)GlcNAc	-0.478
same	glycan array binding signal (z-score)	Gal6P(b1-4)GlcNAc	-1.5
